Data from the supplement of paper PMC3334620.
In all, about 33,000 sequences were measured (“E-score (-0.5 to 0.5)”: median about -0.0059, highest 2% from about 0.26 on). This is one part of the list.

What follows are sequences tested against T1, Cin5 (UniProt P40917) (assay: PBM E-score (8-mer binding enrichment) (E-score (-0.5 to 0.5)); higher = stronger / more preferred TF binding). Conditions: protein concentration: 100 nM; construct: GST-full length.
T1 sequence: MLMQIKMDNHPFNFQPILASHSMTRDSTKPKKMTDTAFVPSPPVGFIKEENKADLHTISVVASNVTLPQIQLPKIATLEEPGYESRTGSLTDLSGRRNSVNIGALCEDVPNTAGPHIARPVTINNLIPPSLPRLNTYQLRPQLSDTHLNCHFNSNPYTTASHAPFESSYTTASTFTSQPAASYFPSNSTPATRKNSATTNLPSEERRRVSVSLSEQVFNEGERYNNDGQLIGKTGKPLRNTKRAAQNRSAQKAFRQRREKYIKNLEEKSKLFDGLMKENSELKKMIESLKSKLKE
Method in brief: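 PURExpress in vitro transcription/translation supplied GST-tagged yeast transcription factors, either full-length or DNA-binding domain. Applied at about 100-200 nM to universal all-10-mer Agilent arrays double-stranded by primer extension, the bound protein was detected with fluorescent anti-GST. E-scores, modified Wilcoxon-Mann-Whitney statistics, were given by the Universal PBM Analysis Suite to ungapped eight-base words pooled with their reverse complements after masliner normalisation.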

| Sequence | PBM E-score |
| --- | --- |
| AATAAATG | 0.269 |
| AAACAATG | 0.196 |
| ATCCGGAG | 0.0842 |
| CGCCTGTA | -0.153 |
| AATCTTAA | 0.121 |
| CGGCGAAA | 0.112 |
| CGGGCTGA | -0.128 |
| AGACTTAA | -0.139 |
| AGAAATAA | 0.197 |
| AATGGTGA | 0.0367 |
| GCCATAGA | -0.162 |
| TACGCTGA | 0.196 |
| AGCACGGC | -0.0856 |
| ACAGGAGT | 0.00086 |
| ATCCAATC | 0.0365 |
| GAGTCCCC | -0.235 |
| ACTTAGAA | -0.0604 |
| ACTTTTAC | 0.273 |
| CAGCCTGA | -0.15 |
| CCCATAAA | -0.0895 |
| GTCAGAGA | -0.189 |
| TTATGGAA | 0.172 |
| ATGCAAAC | 0.17 |
| ATTGACGA | 0.0829 |
| AAACACTA | 0.184 |

| Sequence | PBM E-score |
| --- | --- |
| GTATACCA | 0.00106 |
| AAAAGGGA | -0.1 |
| AGGAAGTA | 0.0506 |
| CTCCCCGC | 0.235 |
| AAAAAGAT | 0.149 |
| CCTAACGA | -0.0973 |
| AACATGCG | 0.176 |
| GTTCCGTA | 0.24 |
| ACTAGAAG | -0.113 |
| AGGATGCG | -0.0938 |
| CGGCTAAA | 0.162 |
| GACGCGTC | -0.165 |
| AGAATTCG | 0.0232 |
| TGTTTGAA | -0.0142 |
| GGGGGTCA | -0.453 |
| ACGTGGTG | -0.0845 |
| CTTGACCA | -0.0945 |
| CGCGTTGC | 0.0846 |
| AGTTTTAC | 0.119 |
| ATGGCACC | -0.0839 |
| CGGGTGCC | -0.121 |
| ACGCATCA | 0.138 |
| CAGTTGAA | -0.0662 |
| ACTGTAAC | 0.0742 |
| CGGTCAAG | -0.059 |

Pulled one by one from the list above (7):

| Sequence | PBM E-score |
| --- | --- |
| AAAAAGAT | 0.149 |
| GGGGGTCA | -0.453 |
| AGAATTCG | 0.0232 |
| ACTAGAAG | -0.113 |
| ATGGCACC | -0.0839 |
| CGCGTTGC | 0.0846 |
| AAAAGGGA | -0.1 |

Next part.

| Sequence | PBM E-score |
| --- | --- |
| AAGTAGCG | -0.1 |
| AGATAGAG | 0.099 |
| CAAGTTCC | -0.118 |
| GGCCCCGA | -0.155 |
| GAACCAGA | -0.183 |
| GCATCGGC | -0.125 |
| GGCGGAGA | -0.0732 |
| GTCTAAGA | 0.0467 |
| GTAGGTTA | 0.0894 |
| GCGTACCC | -0.214 |
| CTGGGTTC | -0.0172 |
| AGGAGACA | -0.0392 |
| GTAAGAGA | 0.0452 |
| ACCTTTAT | -0.122 |
| CAATTCGC | 0.227 |
| ACGTGCTA | -0.159 |
| CACTGCGA | -0.0355 |
| CTTCTCAA | -0.135 |
| GTAATGAC | 0.0891 |
| CTCTATTC | 0.0982 |
| GTTTTACA | 0.124 |
| ATCCACGC | -0.0622 |
| CGATATAC | 0.152 |
| GGTCCCTA | -0.183 |
| ACCGGAGA | 0.123 |

| Sequence | PBM E-score |
| --- | --- |
| GCCCTCAA | -0.219 |
| CTGTCGTA | 0.0969 |
| CTCGCCGC | 0.0301 |
| CGTAGAGA | -0.124 |
| AACCCGAG | -0.0387 |
| CTCTAGCC | -0.218 |
| ATCCAGGC | -0.0409 |
| GGAAGCCC | -0.202 |
| CGCGTTGA | -0.00093 |
| CCGAAGAC | 0.0676 |
| ACCACCAA | -0.0451 |
| ATGTGAAA | 0.0249 |
| CTCAGTGA | -0.116 |
| AAGTGCTC | -0.192 |
| GCTGTAGA | -0.137 |
| ACAATTCT | 0.0682 |
| ATGATCAG | 0.0372 |
| GAGTATCA | -0.0396 |
| TCGCATCA | 0.0954 |
| CAGTAGTA | 0.0564 |
| ATGCTGTA | -0.0138 |
| GAGTATCC | -0.0954 |
| CATAGACC | -0.0448 |
| GGGTTCAC | -0.0209 |
| GGGATCTA | 0.0113 |

| Sequence | PBM E-score |
| --- | --- |
| CTAACAGC | -0.0547 |
| AACGCAGT | -0.115 |
| TCGTCCCA | -0.00184 |
| ATAGCCGA | 0.141 |
| ATTTGTAA | 0.326 |
| AATATATA | 0.18 |
| CAGCCCTA | 0.0564 |
| AGGACCCG | -0.169 |
| ATTTCGTG | 0.163 |
| GAACCTTA | 0.083 |
| AGTAATGG | 0.162 |
| ATGGTTGG | -0.0785 |
| AAAACCGT | -0.157 |
| AATCGGAA | 0.194 |
| AGCTTCCT | 0.00798 |
| GGGGAGGA | -0.166 |
| CTTCTACA | -0.0264 |
| CGCCAACA | 0.0596 |
| CTTGTAAA | 0.0136 |
| GCAGGGAA | 0.185 |
| ATAAAGCG | 0.00465 |
| AGTTCGCG | 0.0949 |
| AAGCAACA | 0.162 |
| CAGGGTGC | -0.286 |
| GATGAGAA | -0.028 |

| Sequence | PBM E-score |
| --- | --- |
| CCGTCCGC | -0.0958 |
| GTACCATA | -0.04 |
| AGAGGTTG | -0.0988 |
| AAATAGAC | 0.143 |
| CGTACGTC | -0.085 |
| GTCCAAAC | -0.189 |
| AACAGAGG | -0.0344 |
| ACTCACAC | -0.0239 |
| GGCTCCAC | -0.279 |
| GCGAGGAA | 0.0446 |
| GACGTCCA | 0.168 |
| TATGTTGA | 0.146 |
| CCAGGACA | -0.025 |
| GATGGTCC | -0.129 |
| ACGCAATA | 0.209 |
| GCTCGAAC | 0.023 |
| ACACTTAC | 0.103 |
| AGTCAAGG | -0.0863 |
| CCCCGAGG | -0.188 |
| CGGTTAGA | -0.0583 |
| AACGCCCG | 0.0417 |
| CATGAAGC | -0.0759 |
| ACATTGCA | 0.108 |
| ACGTTCTG | -0.0118 |
| ATCCGCAT | 0.164 |

| Sequence | PBM E-score |
| --- | --- |
| CTAGAACC | 0.0185 |
| GGGCCGAA | -0.097 |
| CGATCTCA | 0.0389 |
| AAACTTGT | 0.0442 |
| TGCCCCCA | -0.285 |
| CCAGTTGC | -0.18 |
| ATCATTAA | 0.221 |
| ACAGCGAA | -0.00314 |
| TGAGAGCA | 0.016 |
| CCCCTCCG | -0.194 |
| AAGTGTTG | 0.233 |
| AACCAATA | 0.214 |
| AACGAACC | 0.123 |
| TACAGTCA | 0.0163 |
| CGCTCTGA | -0.0953 |
| ACGAAGAC | -0.159 |
| CCCCGGTC | -0.2 |
| ACCGTTCG | 0.0104 |
| CGTGGCTA | -0.13 |
| CATCAGCA | 0.0488 |
| GATCCATC | 0.044 |
| CATTGGGA | -0.093 |
| AATCAATA | 0.168 |
| AAAGGGCG | -0.047 |
| TACGCCAA | -0.172 |

A portion from the list above, for reference:

| Sequence | PBM E-score |
| --- | --- |
| CTAGAACC | 0.0185 |
| GGGCCGAA | -0.097 |

Next results.

| Sequence | PBM E-score |
| --- | --- |
| CCCGCCAC | 0.137 |
| CTTCGTCA | 0.145 |
| CGATACAC | -0.107 |
| CGCCGAGA | -0.00261 |
| AACAAAGT | 0.219 |
| CCCGATTC | -0.00413 |
| ATAAATCC | 0.136 |
| ATTTGAAC | 0.0971 |
| ACACTGAC | 0.146 |
| CGTCAGCA | 0.169 |
| AGTACTCC | -0.0905 |
| ACACGGGC | -0.128 |
| AACAGTCT | -0.202 |
| AATTTTCT | 0.135 |
| GATCTAAC | 0.0956 |
| AATATATG | 0.248 |
| GCTGCCTA | 0.00723 |
| ACGGGTGC | -0.044 |
| AAATCTAC | 0.169 |
| CAATTATA | 0.126 |
| CGCCTTTA | -0.0771 |
| CCAGTCTA | -0.11 |
| GCTTGTGA | -0.13 |
| CGGTAGTA | -0.0389 |
| ACACCTAG | -0.135 |

| Sequence | PBM E-score |
| --- | --- |
| CGGCACGA | 0.00852 |
| CACCTATG | -0.0699 |
| ACCTGTCA | -0.0783 |
| ATAGATGG | 0.00483 |
| CTGCTCTA | 0.0196 |
| GCGTGCTA | -0.266 |
| CATGTTCC | -0.0235 |
| AAAGCGGT | -0.117 |
| ATGTTCGC | -0.0488 |
| ACTTAACG | -0.0484 |
| CACGCTGC | -0.173 |
| GATCTCTA | -0.138 |
| CCTTCGAC | -0.305 |
| CAAGAGGC | -0.124 |
| AGGTCCAC | -0.229 |
| GAGCGGCC | -0.239 |
| ACAAGCGA | 0.155 |
| CCTGATAC | 0.175 |
| CAGTGTTC | 0.0766 |
